Laboratory results taken from publication PMC9445082.
Results are given in words; binding and its absence hold for the method and conditions named. In cells and extracts the contact can be indirect. For some assays here: A result given as binding can be weak or reduced; the word gives no strength. For some assays here: Where a sequence is shown, tags or fusion partners need not be part of it.

By UniProt entry, the sequences of proteins in these tests, tags left out.
UniProt Q6RET7: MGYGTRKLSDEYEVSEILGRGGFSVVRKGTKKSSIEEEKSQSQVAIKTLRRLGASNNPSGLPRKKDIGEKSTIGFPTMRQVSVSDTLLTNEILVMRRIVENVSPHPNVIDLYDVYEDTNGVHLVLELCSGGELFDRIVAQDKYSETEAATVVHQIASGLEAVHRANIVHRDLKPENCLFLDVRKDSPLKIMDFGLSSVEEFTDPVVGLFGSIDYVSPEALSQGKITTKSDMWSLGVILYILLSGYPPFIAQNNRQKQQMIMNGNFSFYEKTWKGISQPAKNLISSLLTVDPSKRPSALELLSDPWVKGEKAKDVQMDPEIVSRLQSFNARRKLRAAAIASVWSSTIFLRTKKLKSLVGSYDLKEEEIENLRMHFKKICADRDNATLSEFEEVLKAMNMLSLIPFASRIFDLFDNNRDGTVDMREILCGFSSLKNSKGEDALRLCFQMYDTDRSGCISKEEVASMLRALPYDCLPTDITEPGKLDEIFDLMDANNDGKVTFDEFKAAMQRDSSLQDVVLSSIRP

B1: VPY-HA (protein, UniProt D3J162 1-541)
chain: MDRLIKLDPSNIVLIRVEEGQKCLGKITLNNVMYTMPVAFRIQPLIKTRYTIKPQSGIISPLASLVIEITYHPPQQQGSNNLPHSFPFSDDSFLLHSVLAPGAAIKEPSSMFDSVPSDWFTTKKKQVFIDSAIKVMFVGSQILTQLVEDGNSMDDIREVLEKSDPLWESVNSKDSQGQTLLHLAISKTRPDLVQLILEFKPDIEAINSVGSTPLEAASSSGESLIVELLLAHKANTEGSESSVFRPIHHASREGHMEILRLLLLKGARVDSLTKDGNTSLHLAVEEKRRDCARLLLANGARTDVRNMREGDTPLHIAAANGDENMVKLLLHKGATKYVRNKLGKTAFDVAAENGHSRLFDALRLGDNLCAAARKGEVRTIQKVLESGGVINGRDQNGWTSLHRAAFKGRMDAVRFLVEKGIDLDAKDEDGYTALHCAAESGHADVTEFLVKKGADVEARTNKGVSALQIVESLNYVGITRILVNGGASREGLGEKPPSAPSKIPFGRKVESGSVMTMKKKMSSRTRALRGSFDHSMPLAVL

Assays:
Assay in all cases: co-IP; tagged proteins co-expressed in N. benthamiana leaves (agroinfiltration, 2 days); extract in 150 mM Tris-HCl pH 7.5, 150 mM NaCl, 10% glycerol, 10 mM EDTA, 0.1% Tween-20; GFP-tagged protein captured on GFP-Trap MA beads, 2 h at 4 °C; four washes; partner detected by western blot
[1] = target: T1, VPY-GFP (Medicago truncatula) (UniProt D3J162)
T1 sequence: B1 chain

[2] = target: GFP-DMI3 (Medicago truncatula) (UniProt Q6RET7)
[3] = target: GFP-ΔDELLA1 (Medicago truncatula)

Molecule | binding [1] | binding [2] | also measured
FLAG-tagged KINASE2 (Medicago truncatula) (enzyme) | binds |  | 
KINASE2-HA (Medicago truncatula) (enzyme) | binds |  | 
VPY_(ANKΔ3-5)-HA (from UniProt D3J162) |  | binds | 
VPY_(ANKΔ7-9)-HA (from UniProt D3J162) |  | no binding | 
B1 |  |  | binding [3]: no binding
